Results: patent publication US20070043070A1, “Weak base salts” (priority 2000, published 2007)
Structures can show the parent of a compound that is named as a salt. Some of these results come from one statement about several compounds together.

Tests used:
Format in all cases: physicochemical
[1] = Dissolution studies in Millipore water; details: after 60 min
[2] = Dissolution studies in 0.1N hydrochloric acid; details: 0.1N HCl, pH 1.1
Method: A weighed amount of salt (so as to have 50 mg of carbendazim) was triturated to provide a uniform particle size and was suspended in the dissolution media. The volume of dissolution media was 250 ml, and the stirring rate was maintained at 250 rpm. One ml aliquot samples filtered through a 0.45 μm Millipore filter were withdrawn at 1, 5, 10, 15, 20, 30, 45, and 60 min, respectively. One ml of the dissolution medium was added to the dissolution vessel after each sampling period to maintain constant volume. The samples were then analyzed by HPLC.

[3] = Moisture sorption studies (desiccators at 43% and 81% RH, 25° C., 8 days; PXRD of the solid afterwards)
Method: The PXRD patterns of different salts of carbendazim were determined at ambient temperature and atmosphere using a Philips PM 990/100 diffractometer (Philips, The Netherlands). The x-ray generator (PW3373/00 Cu LFF DK119706) has a copper radiation source which generates a voltage of 50 kV, and a current of 40 mA. Counts were measured using a X'Celerator detector which is based on real time multiple strip (RTMS) technology. Samples were packed into zero background silicon sample holders, and precautions were used to avoid introducing preferred orientation of the crystallites. The samples were subjected to a spinning movement having a rotation time of 4 s. The samples were scanned with the diffraction angle, 2θ, increasing from 3° to 63°, with a step size of 0.0167° and a counting time of 15.24 s. The XRD pattern traces of samples (salts subjected to moisture sorption or stability) were compared with regard to peak position and relative intensity, peak shifting, and the presence or lack of peaks in certain angular regions.
The moisture sorption of the various salts was determined by exposing weighed amounts (˜2 to 3 mg) of salts in a 4 ml glass vial, which was placed in sealed desiccators containing saturated salt solutions. Saturated salt solutions that give defined relative humidities (as a function of temperature) have been reported in various handbooks containing physical and chemical data.
The current study was performed at 25° C. with relative humidity values of 43% (saturated solution of potassium carbonate) and 81% (saturated solution of potassium bromide). The samples were stored in desiccators of known relative humidity for 8 days, following which they were re-weighed to calculate the % weight change. The solid phases were then analyzed using PXRD to ascertain the effect of the moisture content.

Compound | dissolved fraction of the initial dose [1] | time for dissolving 100% of sample [2] [min] | moisture adsorbed ([3]; 43% RH) | moisture adsorbed ([3]; 81% RH) | dissolved fraction of the initial dose ([1]; hydrochloride) | time for dissolving 100% of sample ([2]; hydrochloride) [min]
carbendazim besylate | greater than 40% | 15 to 20 | less than 1% | – | – | –
carbendazim hemisulfate monohydrate | greater than 40% | 5 to 10 | less than 1% | less than 1% | – | –
carbendazim mesylate | – | – | 1-2% | – | – | –
COC(=O)Nc1nc2ccccc2[nH]1 [Hydrochloride, carbendazim hydrochloride] | – | – | less than 1% | less than 1% | greater than 40% | 15 to 20
carbendazim phosphate | greater than 40% | 5 to 10 | 1-2% | – | – | –
carbendazim tosylate | greater than 40% | 15 to 20 | less than 1% | – | – | –
